Reference: PubChem BioAssay AID1224830 (NIAID, 2016)

Aim: 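Regulators of TLR4 signalling towards TNF-alpha in macrophage-like cells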 (primary screen)
Cell system: human THP-1 monocytic leukaemia cells, TNF dual-luciferase reporter clone, PMA-differentiated to macrophage-like cells
Knock-down reagent: siRNA pool against human genes, 50 nM
Duration: LPS for 4 h, given about 3 days after siRNA transfection
Conditions: bacterial LPS (TLR4 ligand), 10 ng/ml
Measurement: 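Ratio of firefly to renilla light, scaled to the plate median and expressed as a robust z-score per replicate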
Direction: TNF reporter robust z-score: higher = stronger TNF reporter response to LPS
Rule for the call: 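Each well counts as active if its z-score is over 2.8 or under -1.5; controls are left without a call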
The deposit covers about 18,000 reagents; shown is an unselected part. About 2,900 of them (16%) count as active. 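Calls are made per well; low scores hint the gene aids the LPS response, high scores that it dampens it.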 Repeated entries: four replicate wells of each siRNA pool. No sequences are given here.

Gene	TNF reporter robust z-score	call
KIF20B	2.1	inactive
KIF20B	2.26	inactive
KIF20B	0.72	inactive
KIF20B	0.24	inactive
IL2RA	1.81	inactive
IL2RA	2.33	inactive
IL2RA	2.32	inactive
IL2RA	1.4	inactive
XRN2	-0.27	inactive
XRN2	0.13	inactive
XRN2	0.23	inactive
XRN2	-0.75	inactive
ZNF654	-0.66	inactive
ZNF654	0.61	inactive
ZNF654	0.94	inactive
ZNF654	-0.92	inactive
CCNH	0.85	inactive
CCNH	-0.33	inactive
CCNH	0.5	inactive
CCNH	-0.39	inactive
CLCF1	-0.23	inactive
CLCF1	3.08	active
CLCF1	0.64	inactive
CLCF1	2.31	inactive
WARS2	0.03	inactive
WARS2	-1.24	inactive
WARS2	0.07	inactive
WARS2	-0.03	inactive
LYPD1	-0.06	inactive
LYPD1	2.22	inactive
LYPD1	-0.37	inactive
LYPD1	1.91	inactive
CHIC2	1.2	inactive
CHIC2	1.84	inactive
CHIC2	0.91	inactive
CHIC2	1.58	inactive
OR7G1	0.35	inactive
OR7G1	0.33	inactive
OR7G1	-0.6	inactive
OR7G1	-0.13	inactive
CLK3	0.3	inactive
CLK3	0.42	inactive
CLK3	-0.83	inactive
CLK3	1.82	inactive
BRINP3	-1.43	inactive
BRINP3	-0.65	inactive
BRINP3	-0.41	inactive
BRINP3	-0.77	inactive
ZDHHC5	0.98	inactive
ZDHHC5	0.38	inactive
ZDHHC5	-0.23	inactive
ZDHHC5	-0.08	inactive
ADRA1B	2.64	inactive
ADRA1B	1.89	inactive
ADRA1B	1.68	inactive
ADRA1B	3.53	active
LRCH1	0.6	inactive
LRCH1	1.03	inactive
LRCH1	0.65	inactive
ASB5	-0.14	inactive
ASB5	0	inactive
ASB5	-1.36	inactive
ASB5	0.08	inactive
EBAG9	-0.5	inactive
EBAG9	0.39	inactive
EBAG9	-0.43	inactive
LDLR	-0.72	inactive
LDLR	-0.62	inactive
LDLR	-0.95	inactive
LDLR	-0.9	inactive
FBXO9	0.51	inactive
FBXO9	-1.7	active
FBXO9	0.25	inactive
FBXO9	1.6	inactive
GTF3A	-0.68	inactive
GTF3A	0.66	inactive
GTF3A	0.22	inactive
GTF3A	1.07	inactive
FLRT3	-0.18	inactive
FLRT3	-0.7	inactive
FLRT3	0.24	inactive
FLRT3	-0.61	inactive
PTPRR	0	inactive
PTPRR	-0.43	inactive
PTPRR	0.99	inactive
PTPRR	0.29	inactive
LRRC17	-0.18	inactive
LRRC17	0.46	inactive
LRRC17	-0.53	inactive
LRRC17	-0.65	inactive
ALDH6A1	0.59	inactive
ALDH6A1	0.19	inactive
ALDH6A1	1.23	inactive
ALDH6A1	1.67	inactive
ASH2L	-1.3	inactive
ASH2L	-1.57	active
ASH2L	-1.36	inactive
ASH2L	-1.37	inactive
ARHGAP15	-1.83	active
ARHGAP15	-1.52	active
ARHGAP15	-1.38	inactive
ARHGAP15	-1.27	inactive
MS4A5	0.02	inactive
MS4A5	0.05	inactive
MS4A5	-0.44	inactive
MS4A5	-0.51	inactive
CTSL3P	-0.98	inactive
CTSL3P	0.08	inactive
CTSL3P	-0.1	inactive
CTSL3P	0.49	inactive
LDHAL6B	-1.57	active
LDHAL6B	-0.77	inactive
LDHAL6B	-1.05	inactive
LDHAL6B	-0.49	inactive
AMTN	1.45	inactive
AMTN	0.13	inactive
AMTN	0.97	inactive
AMTN	1.01	inactive
NUDT11	1	inactive
NUDT11	-1.11	inactive
NUDT11	0.92	inactive
NUDT11	-1.57	active
ZDHHC23	1.18	inactive
ZDHHC23	-0.46	inactive
ZDHHC23	0.27	inactive
ZDHHC23	2.31	inactive
GATAD2A	3.85	active
GATAD2A	2.17	inactive
GATAD2A	3.34	active
GATAD2A	1.95	inactive
PTGER3	0.28	inactive
PTGER3	0.26	inactive
PTGER3	0.58	inactive
PTGER3	0.17	inactive
KDM4D	0.68	inactive
KDM4D	1.35	inactive
KDM4D	0.64	inactive
KDM4D	1.52	inactive
LYZL6	-0.77	inactive
LYZL6	0.51	inactive
LYZL6	0.77	inactive
LYZL6	0.56	inactive

Reprinted from the entries so far, 20 entries:
Gene	TNF reporter robust z-score	call
LRRC17	0.46	inactive
LRRC17	-0.53	inactive
LRRC17	-0.65	inactive
ALDH6A1	0.59	inactive
ALDH6A1	0.19	inactive
ALDH6A1	1.23	inactive
ALDH6A1	1.67	inactive
ASH2L	-1.3	inactive
ASH2L	-1.57	active
ASH2L	-1.36	inactive
ASH2L	-1.37	inactive
ARHGAP15	-1.83	active
ARHGAP15	-1.52	active
ARHGAP15	-1.38	inactive
ARHGAP15	-1.27	inactive
MS4A5	0.02	inactive
MS4A5	0.05	inactive
MS4A5	-0.44	inactive
MS4A5	-0.51	inactive
CTSL3P	-0.98	inactive
